PubChem BioAssay AID652243 – Drosophila RNAi Screening Center, 2013
Test: 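Fly genes required for human androgen receptor driven transcription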 (primary screen). Cell system: Drosophila S2R+ cells. Knock-down reagent: long dsRNA against Drosophila genes. Timing: 72 h (48 h, then 24 h hormone). Conditions: synthetic androgen R1881 at 10 nM for 24 h. Measurement: 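Firefly light from an androgen-responsive reporter and Renilla control light per well, raw and unnormalised, for each of two replicates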. Direction: firefly reporter light: higher = more light from androgen-responsive reporter; Renilla control light: higher = more constitutive control signal (cell number, transfection). Active means: 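Across duplicate plates, a knock-down whose log firefly/Renilla ratio shifted a set fold down or up from the GFP/LacZ control mean was a hit; the downward cut appears as both 1.5 and 3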. Meaning of the calls: active = hit: reporter lowered or raised; inactive = no hit.
In all, the deposit lists about 24,000 reagents; shown is an unselected part of those that have a named target and a result. Of all reagents, 246 (1%) were called active. 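Plates not normalised; calls are printed but the firefly/Renilla ratio behind them is not deposited; fold cut for lowering reported inconsistently.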 The raw values are shown without normalisation. A number with no mark means an inactive call. Not stated in the record: the amount of reagent.

gene	dsRNA	firefly reporter light, replicate 1	firefly reporter light, replicate 2	Renilla control light, replicate 1	Renilla control light, replicate 2
Syn1 (Syntrophin-like 1)	DRSC11803	2.12e5	2.91e5	2.18e6	2.73e6
Syn1 (Syntrophin-like 1)	DRSC11804	2.57e5	1.81e5	1.65e6	1.58e6
Syn1 (Syntrophin-like 1)	DRSC30039	5.20e5	3.84e5	1.02e6	1.05e6
Sec71 (Secretory 71)	DRSC01893	2.37e5	1.80e5	1.58e6	1.76e6
Cyp12e1 (Cytochrome P450 12e1)	DRSC16622	1.87e5	2.76e5	2.11e6	3.32e6
CG5770	DRSC06954	9.66e5	2.05e5	1.42e6	4.66e5
CG5770	DRSC24281	6.10e5	7.74e5	9.03e5	1.12e6
escl	DRSC02828	6.67e5	5.55e5	1.70e6	2.35e6
escl	DRSC26256	2.55e5	3.09e5	6.46e5	6.34e5
yip3 (yippee interacting protein 3)	DRSC04724	2.37e5	2.10e5	1.69e6	1.42e6
Tango9 (Transport and Golgi organization 9)	DRSC14173	63109	48940	4.16e5	3.35e5
sd (scalloped)	DRSC20370	3.70e5	3.00e5	3.84e6	2.85e6
sd (scalloped)	DRSC37640	8.36e5	9.88e5	2.01e6	1.99e6
CG32333	DRSC08627	9.84e5	9.34e5	1.33e6	1.26e6
CG32333	DRSC08629	40185	62863	5.14e5	7.88e5
CG6295	DRSC16012	87828	1.25e5	1.58e6	1.87e6
CG6295	DRSC24229	6.98e5	9.48e5	7.04e5	8.82e5
Paip2 (polyA-binding protein interacting protein 2)	DRSC14504	64512	40934	3.33e5	2.68e5
Pvf2 (PDGF- and VEGF-related factor 2)	DRSC00968	5.59e5	5.47e5	3.56e6	2.97e6
Pvf2 (PDGF- and VEGF-related factor 2)	DRSC02283	2.32e5	2.10e5	1.93e6	1.71e6
Hsc70-1 (Heat shock protein 70 cognate 1)	DRSC11185	2.80e5	1.58e5	9.17e5	8.34e5
Hsc70-1 (Heat shock protein 70 cognate 1)	DRSC25201	5.67e5	2.63e5	5.29e5	5.76e5
mio (missing oocyte)	DRSC00692	9.62e5	6.44e5	2.46e6	1.32e6
mio (missing oocyte)	DRSC22056	1.05e6	9.11e5	2.38e6	1.69e6
